No constants are given. Whether binding was seen depends on the method and setting. In cells and extracts the contact can be indirect. Some binding calls cover weakened binding; strength is not graded here.

The chains behind the UniProt entries cited, without tags or fusion partners. Where a name states a change or a piece, a line headed by the entry shows the natural chain unless it says otherwise.
UniProt P10242: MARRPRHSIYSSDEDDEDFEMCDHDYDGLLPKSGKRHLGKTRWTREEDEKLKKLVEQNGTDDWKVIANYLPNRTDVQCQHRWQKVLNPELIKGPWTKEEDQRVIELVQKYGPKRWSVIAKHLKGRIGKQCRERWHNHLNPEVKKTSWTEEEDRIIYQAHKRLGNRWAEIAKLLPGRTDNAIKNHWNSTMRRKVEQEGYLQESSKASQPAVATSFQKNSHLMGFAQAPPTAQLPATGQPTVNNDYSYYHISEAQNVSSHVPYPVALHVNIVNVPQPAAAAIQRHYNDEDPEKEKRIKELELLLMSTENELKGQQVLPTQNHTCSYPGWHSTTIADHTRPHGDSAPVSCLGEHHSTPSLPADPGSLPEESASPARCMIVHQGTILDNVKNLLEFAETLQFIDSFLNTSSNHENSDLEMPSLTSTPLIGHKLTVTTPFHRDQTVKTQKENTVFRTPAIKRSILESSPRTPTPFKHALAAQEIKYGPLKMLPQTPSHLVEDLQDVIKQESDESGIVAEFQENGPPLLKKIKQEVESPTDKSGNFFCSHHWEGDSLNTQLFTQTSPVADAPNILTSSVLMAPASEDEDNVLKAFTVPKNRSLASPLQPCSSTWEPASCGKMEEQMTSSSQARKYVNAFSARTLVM
UniProt P32519: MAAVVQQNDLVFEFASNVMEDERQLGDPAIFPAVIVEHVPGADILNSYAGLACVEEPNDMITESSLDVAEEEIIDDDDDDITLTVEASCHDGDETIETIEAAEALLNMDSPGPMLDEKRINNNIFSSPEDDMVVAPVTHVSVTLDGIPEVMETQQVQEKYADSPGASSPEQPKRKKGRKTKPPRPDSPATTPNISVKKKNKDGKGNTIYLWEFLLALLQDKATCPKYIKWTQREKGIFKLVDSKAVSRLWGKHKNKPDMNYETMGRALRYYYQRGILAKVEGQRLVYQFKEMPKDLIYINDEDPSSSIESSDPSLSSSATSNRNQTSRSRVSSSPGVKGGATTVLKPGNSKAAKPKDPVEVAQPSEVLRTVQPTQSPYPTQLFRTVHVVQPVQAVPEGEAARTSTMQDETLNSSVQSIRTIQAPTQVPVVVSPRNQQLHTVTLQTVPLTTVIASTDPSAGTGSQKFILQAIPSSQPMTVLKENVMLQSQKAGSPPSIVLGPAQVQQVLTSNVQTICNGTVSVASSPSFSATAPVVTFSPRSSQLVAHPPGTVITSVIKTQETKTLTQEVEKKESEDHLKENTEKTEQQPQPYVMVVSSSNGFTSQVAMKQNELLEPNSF
UniProt P03372: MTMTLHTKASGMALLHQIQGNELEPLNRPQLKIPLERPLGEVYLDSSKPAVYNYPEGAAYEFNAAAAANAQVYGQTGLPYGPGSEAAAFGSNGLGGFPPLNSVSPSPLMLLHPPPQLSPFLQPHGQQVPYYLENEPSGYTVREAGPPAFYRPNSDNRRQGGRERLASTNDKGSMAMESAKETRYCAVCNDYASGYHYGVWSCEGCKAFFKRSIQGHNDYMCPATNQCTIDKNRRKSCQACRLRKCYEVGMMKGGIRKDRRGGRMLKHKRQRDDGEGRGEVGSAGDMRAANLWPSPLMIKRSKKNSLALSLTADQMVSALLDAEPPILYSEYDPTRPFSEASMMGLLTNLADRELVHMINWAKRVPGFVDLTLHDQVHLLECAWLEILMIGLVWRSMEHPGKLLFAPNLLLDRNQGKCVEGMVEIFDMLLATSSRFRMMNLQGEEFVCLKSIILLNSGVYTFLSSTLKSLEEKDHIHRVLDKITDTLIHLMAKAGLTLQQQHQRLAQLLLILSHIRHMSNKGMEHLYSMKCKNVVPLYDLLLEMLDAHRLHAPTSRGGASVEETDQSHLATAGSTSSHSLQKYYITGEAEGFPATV

In assay [1] the target is c-Myb (human (endogenous in T47D)) (UniProt P10242). Kind of assay: co-IP; T47D cells treated with DMSO or E2 (10^-7 mol/L) for 4 h, lysed in RIPA buffer; 1.5 mg lysate, 4 µg anti-c-Myb or anti-ELF-1 overnight at 4°C, protein A/G-agarose, washed 3 times with RIPA; Western blot for ERα; more ERα with E2. (In western blotting, separated proteins are transferred to a membrane and probed.)

For assay [2], the target named is ELF-1 (human (endogenous in T47D)) (UniProt P32519). The description is as above.
Assay [3] addresses c-Myb (human (endogenous in T47D)) (UniProt P10242). Kind of assay: co-IP; T47D cells pretreated with Tamoxifen (10^-6 mol/L) for 30 min before E2 (10^-7 mol/L) for 4 h, lysed; IP with anti-c-Myb or anti-ELF-1, Western blot for ERα.
Assay [4] addresses ELF-1 (human (endogenous in T47D)) (UniProt P32519). The description is as above.

Take “estrogen receptor α (from UniProt P03372 1-595)”: the binding result in assay [1] is on record as “binds”; in assay [2], “binds”; in assay [3] it was “binds weakly”; in assay [4], “binds weakly”.

The values are drawn from publication PMC4048212.
